The target of the experiment is Green Camuiβ (UniProt P08413). Description: SEC.

The chains behind the UniProt entries cited, without tags or fusion partners.
UniProt P08413, whole entry: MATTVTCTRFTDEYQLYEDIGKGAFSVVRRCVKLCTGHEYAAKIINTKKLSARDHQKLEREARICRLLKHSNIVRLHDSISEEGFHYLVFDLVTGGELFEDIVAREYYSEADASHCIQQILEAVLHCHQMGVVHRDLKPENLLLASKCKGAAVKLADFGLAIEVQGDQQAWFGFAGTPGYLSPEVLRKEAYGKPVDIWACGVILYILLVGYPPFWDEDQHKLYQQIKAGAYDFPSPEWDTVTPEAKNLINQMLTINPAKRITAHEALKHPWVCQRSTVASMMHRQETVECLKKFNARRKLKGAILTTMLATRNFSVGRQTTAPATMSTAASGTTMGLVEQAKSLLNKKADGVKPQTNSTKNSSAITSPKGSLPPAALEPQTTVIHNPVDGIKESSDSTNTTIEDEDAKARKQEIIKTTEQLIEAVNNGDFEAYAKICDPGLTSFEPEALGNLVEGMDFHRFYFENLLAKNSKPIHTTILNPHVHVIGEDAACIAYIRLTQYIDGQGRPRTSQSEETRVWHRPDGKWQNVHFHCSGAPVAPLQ

Results are given in words; binding and its absence hold for the method and conditions named. Some entries that bind do so weakly or less than the wild type.

With “Green Camuiβ (from UniProt P08413 1-542)”, the binding entry was “binds”.

The values above are taken from doi:10.1101/2023.08.01.549180.
